From article PMC5190079
These are yes or no findings as the source states them, for the method shown. Binding seen in cells or lysates may run through a third protein. Some entries that bind do so weakly or less than the wild type.

Amino acid sequences for entries named in this document (tags omitted). Residues count along the entry.
UniProt Q03405, residues 23-305: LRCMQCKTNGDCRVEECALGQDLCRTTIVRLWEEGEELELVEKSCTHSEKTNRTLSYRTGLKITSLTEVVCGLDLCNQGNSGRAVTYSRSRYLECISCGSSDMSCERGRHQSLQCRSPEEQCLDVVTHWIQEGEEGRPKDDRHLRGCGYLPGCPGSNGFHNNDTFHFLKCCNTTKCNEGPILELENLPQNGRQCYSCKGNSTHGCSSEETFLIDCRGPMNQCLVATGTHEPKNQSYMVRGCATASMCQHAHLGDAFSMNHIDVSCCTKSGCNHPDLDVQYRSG
UniProt P67809: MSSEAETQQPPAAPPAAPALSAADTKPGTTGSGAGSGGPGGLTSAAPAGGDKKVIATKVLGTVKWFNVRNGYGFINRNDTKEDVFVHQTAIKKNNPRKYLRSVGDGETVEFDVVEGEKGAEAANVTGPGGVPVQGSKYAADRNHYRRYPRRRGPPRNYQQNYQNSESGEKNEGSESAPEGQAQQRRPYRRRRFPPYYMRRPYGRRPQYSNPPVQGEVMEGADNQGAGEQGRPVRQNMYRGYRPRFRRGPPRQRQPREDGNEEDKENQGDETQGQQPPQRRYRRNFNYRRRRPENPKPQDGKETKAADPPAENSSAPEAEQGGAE

Columns and labels:
[1] = target: urokinase plasminogen activator receptor (plasminogen activator, urokinase receptor) (human (endogenous in MDA-MB-231)) (UniProt Q03405); assay: co-IP; co-IP of endogenous uPAR from MDA-MB-231 lysate with polyclonal anti-uPAR antibody (AF807), protein A/G PLUS beads; polyclonal goat isotype antibody as negative control; precipitates analysed by Western blot
[2] = target: urokinase plasminogen activator receptor (plasminogen activator, urokinase receptor) (human (endogenous in MDA-MB-231)) (UniProt Q03405); assay: proximity ligation; DUOLink PLA on FFPE cell block sections: MDA-MB-231 mock control and uPAR-depleted (uPAR RNAi) cells, also BT549 and MCF7 cells; signals counted by confocal microscopy
[3] = target: urokinase plasminogen activator receptor (plasminogen activator, urokinase receptor) (human (endogenous in MDA-MB-231)) (UniProt Q03405); assay: proximity ligation; DUOLink PLA on tissue microarray sections of FFPE TNBC tumour specimens; signals counted by confocal microscopy

| Molecule | binding [1] | binding [2] | binding [3] |
| --- | --- | --- | --- |
| Y-box-binding protein 1 (from UniProt P67809 1-324) | binds | binds |  |
| cysteine-rich angiogenic inducer 61 (protein, UniProt O00622 25-381) TCPAACHCPLEAPKCAPGVGLVRDGCGCCKVCAKQLNEDCSKTQPCDHTKGLECNFGASSTALKGICRAQSEGRPCEYNSRIYQNGESFQPNCKHQCTCIDGAVGCIPLCPQELSLPNLGCPNPRLVKVTGQCCEEWVCDEDSIKDPMEDQDGLLGKELGFDASEVELTRNNELIAVGKGSSLKRLPVFGMEPRILYNPLQGQKCIVQTTSWSQCSKTCGTGISTRVTNDNPECRLVKETRICEVRPCGQPVYSSLKKGKKCSKTKKSPEPVRFTYAGCLSVKKYRPKYCGSCVDGRCCTPQLTRTVKMRFRCEDGETFSKNVMMIQSCKCNYNCPHANEAAFPFYRLFNDIHKFRD | binds | binds | binds |
